± gives the standard deviation of the averaged measurements. Most values lie within the scatter of the assay; repeated measurements hardly agree.

Chains of the proteins cited; added tags and fusions are not shown. Lines headed by an entry give the natural chain unless they say otherwise; changes in a name come on top.
UniProt Q01105, whole entry, looked up: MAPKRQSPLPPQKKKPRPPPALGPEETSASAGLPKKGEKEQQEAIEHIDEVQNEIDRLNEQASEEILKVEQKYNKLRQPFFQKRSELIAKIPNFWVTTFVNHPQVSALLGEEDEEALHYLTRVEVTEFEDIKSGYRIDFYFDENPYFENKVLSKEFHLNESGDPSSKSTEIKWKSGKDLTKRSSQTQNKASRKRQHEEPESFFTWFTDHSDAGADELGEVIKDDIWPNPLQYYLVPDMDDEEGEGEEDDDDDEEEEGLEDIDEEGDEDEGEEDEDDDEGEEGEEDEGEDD
UniProt P63208, whole entry: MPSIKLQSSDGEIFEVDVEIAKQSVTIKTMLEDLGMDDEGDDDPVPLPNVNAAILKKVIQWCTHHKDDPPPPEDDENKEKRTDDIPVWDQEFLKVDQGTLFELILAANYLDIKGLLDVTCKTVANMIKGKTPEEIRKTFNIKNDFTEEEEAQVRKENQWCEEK
UniProt Q9Y2U5: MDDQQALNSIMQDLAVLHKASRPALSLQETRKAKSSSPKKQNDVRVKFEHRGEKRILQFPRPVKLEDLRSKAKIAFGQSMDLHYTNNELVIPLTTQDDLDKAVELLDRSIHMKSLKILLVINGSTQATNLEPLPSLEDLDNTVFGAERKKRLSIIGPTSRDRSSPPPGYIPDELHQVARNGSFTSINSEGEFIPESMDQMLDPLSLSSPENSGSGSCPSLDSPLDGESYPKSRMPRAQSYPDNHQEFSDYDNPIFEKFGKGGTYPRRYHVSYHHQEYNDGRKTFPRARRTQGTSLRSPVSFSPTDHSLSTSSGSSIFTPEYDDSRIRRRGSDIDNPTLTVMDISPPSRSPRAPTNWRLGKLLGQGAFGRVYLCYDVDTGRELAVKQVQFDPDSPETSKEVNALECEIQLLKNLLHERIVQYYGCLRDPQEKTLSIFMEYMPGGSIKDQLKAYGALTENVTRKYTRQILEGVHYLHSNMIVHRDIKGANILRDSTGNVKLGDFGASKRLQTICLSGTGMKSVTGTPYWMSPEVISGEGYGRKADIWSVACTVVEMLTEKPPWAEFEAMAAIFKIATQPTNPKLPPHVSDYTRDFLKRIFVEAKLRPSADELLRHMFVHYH
UniProt Q9UHR4: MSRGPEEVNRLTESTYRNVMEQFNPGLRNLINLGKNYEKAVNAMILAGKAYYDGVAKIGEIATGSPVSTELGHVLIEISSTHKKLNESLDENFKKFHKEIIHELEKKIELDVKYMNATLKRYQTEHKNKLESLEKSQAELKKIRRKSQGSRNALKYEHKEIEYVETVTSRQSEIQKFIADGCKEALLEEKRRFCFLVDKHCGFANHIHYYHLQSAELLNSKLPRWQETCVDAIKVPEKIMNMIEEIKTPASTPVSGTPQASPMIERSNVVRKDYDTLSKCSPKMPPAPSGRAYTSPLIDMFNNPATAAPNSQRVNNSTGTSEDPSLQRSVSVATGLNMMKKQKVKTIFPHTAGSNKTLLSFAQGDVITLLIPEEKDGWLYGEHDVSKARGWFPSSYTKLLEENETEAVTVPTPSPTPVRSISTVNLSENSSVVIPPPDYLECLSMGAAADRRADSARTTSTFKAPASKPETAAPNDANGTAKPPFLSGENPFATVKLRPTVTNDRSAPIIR
UniProt Q9HAS0: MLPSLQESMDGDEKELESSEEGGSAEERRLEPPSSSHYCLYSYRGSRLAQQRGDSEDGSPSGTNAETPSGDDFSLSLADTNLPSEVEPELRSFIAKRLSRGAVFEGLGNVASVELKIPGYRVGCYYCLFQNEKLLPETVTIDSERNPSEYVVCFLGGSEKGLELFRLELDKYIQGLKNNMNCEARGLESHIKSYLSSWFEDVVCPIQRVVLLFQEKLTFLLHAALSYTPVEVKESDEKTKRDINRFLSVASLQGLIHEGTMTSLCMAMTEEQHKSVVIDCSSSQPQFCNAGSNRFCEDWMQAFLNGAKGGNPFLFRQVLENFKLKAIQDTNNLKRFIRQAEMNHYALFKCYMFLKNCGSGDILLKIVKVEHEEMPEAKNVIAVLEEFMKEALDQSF
UniProt Q9UKV3: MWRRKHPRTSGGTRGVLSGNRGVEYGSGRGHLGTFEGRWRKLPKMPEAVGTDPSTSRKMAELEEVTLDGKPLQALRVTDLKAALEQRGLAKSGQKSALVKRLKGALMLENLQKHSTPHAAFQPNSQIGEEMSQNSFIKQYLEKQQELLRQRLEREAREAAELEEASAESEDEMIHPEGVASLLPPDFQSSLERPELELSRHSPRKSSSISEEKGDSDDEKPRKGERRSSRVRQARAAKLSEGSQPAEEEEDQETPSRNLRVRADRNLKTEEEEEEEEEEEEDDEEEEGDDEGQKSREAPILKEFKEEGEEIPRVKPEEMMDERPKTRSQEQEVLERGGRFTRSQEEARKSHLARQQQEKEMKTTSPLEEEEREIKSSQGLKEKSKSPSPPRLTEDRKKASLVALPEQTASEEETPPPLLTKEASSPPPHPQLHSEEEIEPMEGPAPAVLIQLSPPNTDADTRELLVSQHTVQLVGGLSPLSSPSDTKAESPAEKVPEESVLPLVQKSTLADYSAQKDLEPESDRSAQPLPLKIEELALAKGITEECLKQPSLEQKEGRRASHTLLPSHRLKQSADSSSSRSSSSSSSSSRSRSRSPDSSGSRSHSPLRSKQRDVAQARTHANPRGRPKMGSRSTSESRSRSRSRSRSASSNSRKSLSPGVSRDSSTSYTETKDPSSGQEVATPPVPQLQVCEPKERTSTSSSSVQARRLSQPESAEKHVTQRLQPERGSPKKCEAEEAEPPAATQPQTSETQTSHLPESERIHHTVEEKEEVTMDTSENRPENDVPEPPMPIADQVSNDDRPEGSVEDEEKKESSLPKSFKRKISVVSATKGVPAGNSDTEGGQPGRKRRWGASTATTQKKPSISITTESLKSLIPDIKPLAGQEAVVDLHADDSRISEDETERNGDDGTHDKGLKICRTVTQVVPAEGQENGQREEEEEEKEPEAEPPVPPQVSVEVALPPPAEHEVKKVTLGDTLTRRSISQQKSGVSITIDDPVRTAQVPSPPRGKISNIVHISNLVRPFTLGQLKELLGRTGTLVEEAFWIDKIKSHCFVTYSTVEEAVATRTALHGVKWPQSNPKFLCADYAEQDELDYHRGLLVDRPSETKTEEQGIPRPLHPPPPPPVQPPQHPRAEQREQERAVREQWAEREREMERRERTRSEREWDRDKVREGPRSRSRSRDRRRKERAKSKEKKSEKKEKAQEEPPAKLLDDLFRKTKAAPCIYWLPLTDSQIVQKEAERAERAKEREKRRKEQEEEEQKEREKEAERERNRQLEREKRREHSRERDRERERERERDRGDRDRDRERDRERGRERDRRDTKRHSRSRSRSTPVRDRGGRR
UniProt Q9BTC0, whole entry: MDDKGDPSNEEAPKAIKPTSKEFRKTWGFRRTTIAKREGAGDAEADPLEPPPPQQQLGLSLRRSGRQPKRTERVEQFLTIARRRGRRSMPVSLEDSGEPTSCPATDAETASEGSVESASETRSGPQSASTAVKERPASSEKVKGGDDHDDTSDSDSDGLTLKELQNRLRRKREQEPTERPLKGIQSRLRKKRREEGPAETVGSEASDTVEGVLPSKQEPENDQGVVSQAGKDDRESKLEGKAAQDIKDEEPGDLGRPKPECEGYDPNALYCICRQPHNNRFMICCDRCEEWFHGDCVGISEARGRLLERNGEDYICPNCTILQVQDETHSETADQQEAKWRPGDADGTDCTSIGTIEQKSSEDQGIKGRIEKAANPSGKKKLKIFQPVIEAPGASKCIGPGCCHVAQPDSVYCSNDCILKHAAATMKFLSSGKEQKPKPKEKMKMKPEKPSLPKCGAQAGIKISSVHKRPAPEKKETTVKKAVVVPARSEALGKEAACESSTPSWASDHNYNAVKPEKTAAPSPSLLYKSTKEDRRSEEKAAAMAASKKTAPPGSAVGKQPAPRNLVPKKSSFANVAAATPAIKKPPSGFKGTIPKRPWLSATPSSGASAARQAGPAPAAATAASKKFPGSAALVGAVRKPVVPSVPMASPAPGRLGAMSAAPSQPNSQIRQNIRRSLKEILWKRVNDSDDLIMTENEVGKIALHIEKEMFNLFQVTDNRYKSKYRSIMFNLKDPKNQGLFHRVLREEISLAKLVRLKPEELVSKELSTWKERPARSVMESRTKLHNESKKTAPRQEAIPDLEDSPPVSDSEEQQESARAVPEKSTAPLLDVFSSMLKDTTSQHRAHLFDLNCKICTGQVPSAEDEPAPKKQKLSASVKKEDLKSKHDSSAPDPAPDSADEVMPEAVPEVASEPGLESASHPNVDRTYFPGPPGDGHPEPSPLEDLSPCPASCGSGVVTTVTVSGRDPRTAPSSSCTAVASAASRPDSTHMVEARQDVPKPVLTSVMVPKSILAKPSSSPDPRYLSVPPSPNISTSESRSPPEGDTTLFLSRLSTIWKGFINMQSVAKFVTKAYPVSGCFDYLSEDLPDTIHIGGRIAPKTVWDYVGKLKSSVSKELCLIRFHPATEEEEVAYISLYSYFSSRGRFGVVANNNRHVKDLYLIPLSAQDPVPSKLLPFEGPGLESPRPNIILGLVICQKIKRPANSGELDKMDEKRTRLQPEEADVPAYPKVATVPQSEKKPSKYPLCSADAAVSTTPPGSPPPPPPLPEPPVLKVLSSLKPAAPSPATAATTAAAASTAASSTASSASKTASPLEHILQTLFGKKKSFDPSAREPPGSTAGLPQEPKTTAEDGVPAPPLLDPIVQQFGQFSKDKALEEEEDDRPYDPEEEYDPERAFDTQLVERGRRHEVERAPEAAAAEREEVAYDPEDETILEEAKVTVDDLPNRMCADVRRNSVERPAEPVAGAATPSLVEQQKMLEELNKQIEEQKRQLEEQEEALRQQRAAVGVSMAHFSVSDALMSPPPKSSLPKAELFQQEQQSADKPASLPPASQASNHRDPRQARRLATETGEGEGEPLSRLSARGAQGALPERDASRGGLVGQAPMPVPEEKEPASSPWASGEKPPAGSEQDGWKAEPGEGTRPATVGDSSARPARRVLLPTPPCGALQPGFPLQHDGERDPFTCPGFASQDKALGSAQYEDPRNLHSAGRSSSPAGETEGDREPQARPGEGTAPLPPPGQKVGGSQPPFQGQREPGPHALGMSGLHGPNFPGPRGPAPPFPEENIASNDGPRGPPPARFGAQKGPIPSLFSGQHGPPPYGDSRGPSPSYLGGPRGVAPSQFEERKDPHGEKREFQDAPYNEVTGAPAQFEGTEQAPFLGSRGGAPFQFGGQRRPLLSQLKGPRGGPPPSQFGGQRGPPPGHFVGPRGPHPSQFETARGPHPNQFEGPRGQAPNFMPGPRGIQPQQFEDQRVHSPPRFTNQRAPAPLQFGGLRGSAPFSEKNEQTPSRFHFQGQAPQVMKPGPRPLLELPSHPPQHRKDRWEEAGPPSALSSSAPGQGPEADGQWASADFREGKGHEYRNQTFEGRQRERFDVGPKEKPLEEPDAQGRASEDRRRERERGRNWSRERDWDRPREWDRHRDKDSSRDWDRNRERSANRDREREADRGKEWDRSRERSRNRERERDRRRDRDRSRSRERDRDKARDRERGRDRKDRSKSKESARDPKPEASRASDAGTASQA
UniProt Q86WB0: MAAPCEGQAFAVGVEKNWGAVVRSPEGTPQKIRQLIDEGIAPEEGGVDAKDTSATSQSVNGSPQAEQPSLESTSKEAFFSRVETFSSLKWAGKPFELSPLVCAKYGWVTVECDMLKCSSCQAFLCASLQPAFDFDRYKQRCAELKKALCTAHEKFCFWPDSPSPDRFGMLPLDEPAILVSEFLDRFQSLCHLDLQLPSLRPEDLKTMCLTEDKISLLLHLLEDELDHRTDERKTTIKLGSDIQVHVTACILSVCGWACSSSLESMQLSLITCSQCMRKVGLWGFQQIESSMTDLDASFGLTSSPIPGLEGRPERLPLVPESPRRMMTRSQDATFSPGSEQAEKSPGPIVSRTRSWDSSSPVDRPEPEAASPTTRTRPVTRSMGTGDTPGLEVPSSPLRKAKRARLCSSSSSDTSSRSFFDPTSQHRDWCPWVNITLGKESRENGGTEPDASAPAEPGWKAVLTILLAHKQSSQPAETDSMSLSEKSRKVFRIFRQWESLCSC
UniProt Q92934: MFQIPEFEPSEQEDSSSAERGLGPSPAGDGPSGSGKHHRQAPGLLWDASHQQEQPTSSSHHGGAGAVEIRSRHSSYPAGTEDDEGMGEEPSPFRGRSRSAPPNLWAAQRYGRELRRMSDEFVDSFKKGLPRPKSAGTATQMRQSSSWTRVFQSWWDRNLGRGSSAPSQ
UniProt O43488: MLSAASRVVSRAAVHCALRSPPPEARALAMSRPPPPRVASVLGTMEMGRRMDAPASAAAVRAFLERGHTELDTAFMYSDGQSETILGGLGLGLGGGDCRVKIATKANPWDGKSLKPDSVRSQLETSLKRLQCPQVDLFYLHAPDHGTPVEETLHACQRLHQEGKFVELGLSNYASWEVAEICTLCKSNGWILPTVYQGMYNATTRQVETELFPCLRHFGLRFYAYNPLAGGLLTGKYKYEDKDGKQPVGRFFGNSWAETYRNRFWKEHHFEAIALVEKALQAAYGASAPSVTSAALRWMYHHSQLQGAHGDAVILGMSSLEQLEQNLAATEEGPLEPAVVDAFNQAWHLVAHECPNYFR

Compound in this test: CC[C@@H](C)Nc1cc(C(=O)N[C@H]2C[C@H]3CC[C@@H](C2)N3c2ccc(C(=O)C3CC3)cn2)c(C)cc1C(N)=O [XL888]
Briefly: phosphopeptide melting temperature shift (XL888 minus DMSO); higher = stabilised by drug treatment. The following applies: 100 µM; treatment time 2 h; layout: intact cells; SK-Mel 24. How it is done: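 Phospho-TPP in intact SK-Mel 24 cells treated with 100 uM XL888 or DMSO for 2 h, heated at 10 temperatures (37-67 C) for 3 min, soluble fraction TMT10plex-labelled and TiO2 phospho-enriched. Melting curves were fitted per phosphopeptide; the value is the melting point difference (drug minus vehicle) in each of two biological replicates.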
For the target “UniProt Q13625-2_phosphosite_575 (phosphosite position: 575)”, the “phosphopeptide melting temperature shift” value amounted to 0.663 ± 0.026 °C.
Consider “UniProt Q14693-6_phosphosite_168 (phosphosite position: 168)”, for which the “phosphopeptide melting temperature shift” value was -1.63 °C.
Regarding “UniProt P11274-2_phosphosite_122 (phosphosite position: 122)”, the “phosphopeptide melting temperature shift” value amounted to 0.54 °C.
The same measure for “UniProt Q01105-2_phosphosite_23 (phosphosite position: 23)”: -0.66 °C.
Then “UniProt Q05655_phosphosite_645 (phosphosite position: 645)”, with -0.331 ± 0.33 °C; and “UniProt O60504-2_phosphosite_188 (phosphosite position: 188)”, with 3.63 °C.
Consider “UniProt P41227-2_phosphosite_171 (phosphosite position: 171)”, for which the “phosphopeptide melting temperature shift” value was 0.732 °C.
As for “UniProt O96017-13_phosphosite_158 (phosphosite position: 158)”, the “phosphopeptide melting temperature shift” value was -0.896 °C.
On to “UniProt Q7LBC6_phosphosite_798 (phosphosite position: 798)”, for which the “phosphopeptide melting temperature shift” value was -0.95 °C.
As to “UniProt Q96K21-2_phosphosite_134 (phosphosite position: 134)”, the “phosphopeptide melting temperature shift” value was determined as 1.79 °C.
Then “SKP1 phosphosite_131 (phosphosite position: 131) (UniProt P63208)”, with 2.93 °C.
Then “UniProt P56524-2_phosphosite_453 (phosphosite position: 453)”, with 1.57 °C; and “UniProt Q9UKE5-6_phosphosite_651 (phosphosite position: 651)”, with 0.781 ± 0.13 °C; and “UniProt Q13367-3_phosphosite_240 (phosphosite position: 240)”, with -0.197 °C.
As to “UniProt P78527_phosphosite_4026 (phosphosite position: 4026)”, the “phosphopeptide melting temperature shift” value is -1.01 °C.
In the case of “UniProt Q9Y2U5_phosphosite_153 (phosphosite position: 153)”, the “phosphopeptide melting temperature shift” value was -2.23 °C.
The same measure for “OPA1 phosphosite_566 (phosphosite position: 566) (UniProt O60313)”: 0.513 ± 0.41 °C; for “ARFGAP1 phosphosite_189 (phosphosite position: 189) (UniProt Q8N6T3)”: -0.27 °C.
Take “UniProt Q9NQG7-2_phosphosite_373 (phosphosite position: 373)”: the “phosphopeptide melting temperature shift” value stood at 0.368 °C.
The same measure for “RB1 phosphosite_807 (phosphosite position: 807) (UniProt P06400)”: 4.16 °C.
Then “UniProt O75592-2_phosphosite_2751 (phosphosite position: 2751)”, with 0.601 °C; and “UniProt A0MZ66-7_phosphosite_94 (phosphosite position: 94)”, with -0.292 °C.
In the case of “THRAP3 phosphosite_243 (phosphosite position: 243) (UniProt Q9Y2W1)”, the “phosphopeptide melting temperature shift” value stood at 4.38 ± 1.4 °C.
The same measure for “MCM2 phosphosite_41 (phosphosite position: 41) (UniProt P49736)”: -1.54 °C.
The same measure for “BAIAP2L1 phosphosite_414 (phosphosite position: 414) (UniProt Q9UHR4)”: 3.24 °C; for “UniProt A4D1E1_phosphosite_877 (phosphosite position: 877)”: 2.49 °C; for “RSRC2 phosphosite_4 (phosphosite position: 4) (UniProt Q7L4I2)”: 3.12 ± 3.6 °C.
Then “UniProt Q13459-2_phosphosite_1115 (phosphosite position: 1115)”, with 1.07 °C; and “C17orf75 phosphosite_18 (phosphosite position: 18) (UniProt Q9HAS0)”, with 0.512 °C.
Turning to “ACIN1 phosphosite_729 (phosphosite position: 729) (UniProt Q9UKV3)”, the “phosphopeptide melting temperature shift” value is 2.45 °C.
Turning to “UniProt P18858-2_phosphosite_183 (phosphosite position: 183)”, the “phosphopeptide melting temperature shift” value is 0.29 ± 0.49 °C.
Then “UniProt O94762-4_phosphosite_788 (phosphosite position: 788)”, with 1.59 °C; and “KPNA3 phosphosite_60 (phosphosite position: 60) (UniProt O00505)”, with 0.249 °C.
On to “STUB1 phosphosite_19 (phosphosite position: 19) (UniProt Q9UNE7)”, for which the “phosphopeptide melting temperature shift” value was -0.704 °C.
Turning to “UniProt Q13242_phosphosite_221 (phosphosite position: 221)”, the “phosphopeptide melting temperature shift” value worked out at 1.99 °C.
Then “UniProt Q16875-3_phosphosite_441 (phosphosite position: 441)”, with -0.163 °C; and “UniProt P35606-2_phosphosite_832 (phosphosite position: 832)”, with 0.101 ± 0.52 °C; and “UniProt Q13459-2_phosphosite_1290 (phosphosite position: 1290)”, with -0.126 °C.
The same measure for “SRRM2 phosphosite_353 (phosphosite position: 353) (UniProt Q9UQ35)”: 0.27 °C.
The same measure for “UniProt P21333-2_phosphosite_1459 (phosphosite position: 1459)”: 0.821 °C.
For the target “HSPH1 phosphosite_809 (phosphosite position: 809) (UniProt Q92598)”, the “phosphopeptide melting temperature shift” value was 0.0341 ± 0.55 °C.
In the case of “UniProt Q6P2E9-2_phosphosite_498 (phosphosite position: 498)”, the “phosphopeptide melting temperature shift” value came out at 0.266 °C.
The same measure for “UniProt Q15642-4_phosphosite_296 (phosphosite position: 296)”: -0.287 °C; for “AHNAK phosphosite_5448 (phosphosite position: 5448) (UniProt Q09666)”: -3.18 °C.
Turning to “RBM33 phosphosite_765 (phosphosite position: 765) (UniProt Q96EV2)”, the “phosphopeptide melting temperature shift” value came to 1.17 °C.
On to “DIDO1 phosphosite_1714 (phosphosite position: 1714) (UniProt Q9BTC0)”, for which the “phosphopeptide melting temperature shift” value was -0.96 °C.
In the case of “CEP170 phosphosite_958 (phosphosite position: 958) (UniProt Q5SW79)”, the “phosphopeptide melting temperature shift” value was -1.19 °C.
“ZC3HC1 phosphosite_321 (phosphosite position: 321) (UniProt Q86WB0)”: the “phosphopeptide melting temperature shift” value is -0.577 ± 0.16 °C.
For the target “BAD phosphosite_118 (phosphosite position: 118) (UniProt Q92934)”, the “phosphopeptide melting temperature shift” value was determined as 6.22 °C.
For the target “UniProt P09651-3_phosphosite_6 (phosphosite position: 6)”, the “phosphopeptide melting temperature shift” value was -0.744 ± 0.11 °C.
Take “UniProt Q5SYE7-2_phosphosite_1229 (phosphosite position: 1229)”: the “phosphopeptide melting temperature shift” value was 0.182 ± 1.9 °C.
Take “UniProt O43432_phosphosite_495 (phosphosite position: 495)”: the “phosphopeptide melting temperature shift” value was -0.712 ± 0.8 °C.
The same measure for “PXN phosphosite_322 (phosphosite position: 322) (UniProt P49023)”: 0.759 °C.
“SRRM1 phosphosite_463 (phosphosite position: 463) (UniProt Q8IYB3)”: the “phosphopeptide melting temperature shift” value came to 1.79 °C.
Then “SRRM2 phosphosite_1219 (phosphosite position: 1219) (UniProt Q9UQ35)”, with 3.24 °C; and “AKR7A2 phosphosite_255 (phosphosite position: 255) (UniProt O43488)”, with -1.17 ± 0.23 °C; and “UniProt P35712-4_phosphosite_126 (phosphosite position: 126)”, with 0.802 ± 0.46 °C.
Then “UniProt Q9UJF2-2_phosphosite_159 (phosphosite position: 159)”, with -0.127 °C.
The same measure for “UniProt O60524-4_phosphosite_375 (phosphosite position: 375)”: 0.798 °C.
Turning to “MICAL3 phosphosite_1649 (phosphosite position: 1649) (UniProt Q7RTP6)”, the “phosphopeptide melting temperature shift” value came out at 1.15 °C.
On to “UniProt Q9UPN3-4_phosphosite_280 (phosphosite position: 280)”, for which the “phosphopeptide melting temperature shift” value is -1.71 °C.
Then “UniProt O43314-2_phosphosite_1151 (phosphosite position: 1151)”, with -0.0417 ± 0.58 °C; and “UniProt Q9BV36_phosphosite_314 (phosphosite position: 314)”, with 1.99 °C; and “UniProt Q14195-2_phosphosite_636 (phosphosite position: 636)”, with 2.9 °C.
With “NPM1 phosphosite_125 (phosphosite position: 125) (UniProt P06748)”, the “phosphopeptide melting temperature shift” value was 0.346 ± 2.1 °C.
Then “CEP170 phosphosite_1165 (phosphosite position: 1165) (UniProt Q5SW79)”, with 0.282 °C; and “UniProt Q96CA5_phosphosite_37 (phosphosite position: 37)”, with -1.66 °C.

(Values after the supplement of paper PMC5836539.)
